Measurements as given in PMC12650660 (Biomolecules, 2025).

Experiment: general procedure: Fmoc solid-phase peptide synthesis; preloaded HN-L-Pro-2-CTC resin (0.82 mmol/g); HATU/DIPEA; DIC/DMAP for on-resin esterification
Settings: whole synthesis; for final HPLC purity: analytical HPLC, 214 nm

Substance	isolated yield	final HPLC purity
simplified malacidin, Gly6 insertion, D-Asp9 L-Asp9	1.9%	91%
simplified malacidin, Gly9 insertion, D-Asp8 L-Asp8	1.6%	86%
